Results are given in words; binding and its absence hold for the method and conditions named. Some results given as binding are weak or reduced against the parent protein; the word gives no strength.
Molecular target: T1, human CD20 antigen (human, UniProt P11836 1-297)
T1 construct: whole, on cells; also called human CD20 molecule
T1 sequence (looked up): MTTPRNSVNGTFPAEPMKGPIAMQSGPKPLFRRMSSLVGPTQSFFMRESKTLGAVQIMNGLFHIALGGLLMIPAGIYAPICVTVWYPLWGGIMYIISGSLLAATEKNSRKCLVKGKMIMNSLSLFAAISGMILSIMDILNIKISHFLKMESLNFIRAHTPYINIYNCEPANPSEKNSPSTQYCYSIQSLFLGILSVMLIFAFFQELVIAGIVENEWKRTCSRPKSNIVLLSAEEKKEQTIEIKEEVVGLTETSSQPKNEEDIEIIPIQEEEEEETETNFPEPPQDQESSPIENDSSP
Assay: affinity on Raji cells, comparison in words

binding: binds
B1: 1K0924 mouse anti-CD20 monoclonal antibody (antibody, mouse IgG2b, V domains shown)
VH: QVQLQQPGAELVKPGASVKMSCKASGYTFTSYNIHWVKQTPGQGLEWIGAIYPGNGDTSYNQKFKGKATLTSDKSSSTAYMQLSSLTSEDSAVYYCARMSTMITGFDYWGQGTTLTVSS
VL: QIVLSQSPAILSASPGEKVTMTCRASSSVSYMHWYQQRPGSSPKPWIYATSNLASGVPARFSGSGSGTSYYFTISRVEAEDAATYYCQQWNSNPPTHGGGTKLEIK

Reference: US20110263825A1 (OSAKA UNIVERSITY, published 2011)
